Reference: the supplement of paper PMC10689618
Counter-ions that a name gives are not always drawn. Some of the results follow. Single values are uncertain, as repeats are few or missing.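 Primary human fetal astrocytes engulfed labelled rat cortical synaptosomes, measured as a red/green ratio corrected for calcein live-cell signal and scaled to the plate median. Toxicity meant calcein falling over 30%; decreased phagocytosis meant below 70% of median above 5 µM.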

Columns and labels:
Human fetal astrocytes [1] = assay: loss of total cells relative to no-compound high-control median (toxicity); higher = more toxic (fewer cells); conditions: 24 h
Human fetal astrocytes [2] = assay: synaptosome phagocytosis (pHrodo/calcein intensity ratio) relative to plate median of data wells; higher = more phagocytosis; conditions: 24 h

## CC(N)(Cc1ccc(O)c(O)c1)C(=O)O (racemic) [(±)-3-(3,4-dihydroxyphenyl)-2-methyl-DL-alanine]
Human fetal astrocytes [1]; 1.39 µM
  loss of total cells: -7.1%
Human fetal astrocytes [1]; 2.78 µM
  loss of total cells: -7.7%
Human fetal astrocytes [1]; 5.56 µM
  loss of total cells: -33.3%
Human fetal astrocytes [1]; 11.11 µM
  loss of total cells: 4.8%
Human fetal astrocytes [1]; 22.22 µM
  loss of total cells: -14%
Human fetal astrocytes [2]; 1.39 µM
  synaptosome phagocytosis: 89.4%
Human fetal astrocytes [2]; 2.78 µM
  synaptosome phagocytosis: 97.3%
Human fetal astrocytes [2]; 5.56 µM
  synaptosome phagocytosis: 77.3%
Human fetal astrocytes [2]; 11.11 µM
  synaptosome phagocytosis: 98.8%
Human fetal astrocytes [2]; 22.22 µM
  synaptosome phagocytosis: 89.5%

## N=C(N)SCCc1ccc(CCSC(=N)N)cc1 [1,4-PBIT dihydrobromide]
Human fetal astrocytes [1]; 1.39 µM
  loss of total cells: -24.5%
Human fetal astrocytes [1]; 2.78 µM
  loss of total cells: -15.9%
Human fetal astrocytes [1]; 5.56 µM
  loss of total cells: -6.7%
Human fetal astrocytes [1]; 11.11 µM
  loss of total cells: -5%
Human fetal astrocytes [1]; 22.22 µM
  loss of total cells: -9.9%
Human fetal astrocytes [2]; 1.39 µM
  synaptosome phagocytosis: 96.1%
Human fetal astrocytes [2]; 2.78 µM
  synaptosome phagocytosis: 112%
Human fetal astrocytes [2]; 5.56 µM
  synaptosome phagocytosis: 115%
Human fetal astrocytes [2]; 11.11 µM
  synaptosome phagocytosis: 108%
Human fetal astrocytes [2]; 22.22 µM
  synaptosome phagocytosis: 97.2%

## Nc1c(S(=O)(=O)O)cc(Nc2ccc(Nc3nc(Cl)nc(Nc4cccc(S(=O)(=O)O)c4)n3)c(S(=O)(=O)O)c2)c2c1C(=O)c1ccccc1C2=O [Reactive Blue 2]
Human fetal astrocytes [1]; 1.39 µM
  loss of total cells: -14%
Human fetal astrocytes [1]; 2.78 µM
  loss of total cells: -13.5%
Human fetal astrocytes [1]; 5.56 µM
  loss of total cells: -6.7%
Human fetal astrocytes [1]; 11.11 µM
  loss of total cells: 10.3%
Human fetal astrocytes [1]; 22.22 µM
  loss of total cells: 14.8%
Human fetal astrocytes [2]; 1.39 µM
  synaptosome phagocytosis: 96%
Human fetal astrocytes [2]; 2.78 µM
  synaptosome phagocytosis: 94.7%
Human fetal astrocytes [2]; 5.56 µM
  synaptosome phagocytosis: 104%
Human fetal astrocytes [2]; 11.11 µM
  synaptosome phagocytosis: 67.9%
Human fetal astrocytes [2]; 22.22 µM
  synaptosome phagocytosis: 23.6%

## COc1cc(=O)n(C)c2c(OCC(O)C(C)(C)O)cccc12 (stereo not given) [Foliosidine]
Human fetal astrocytes [1]; 1.39 µM
  loss of total cells: 2.9%
Human fetal astrocytes [1]; 2.78 µM
  loss of total cells: -4.3%
Human fetal astrocytes [1]; 5.56 µM
  loss of total cells: 5.8%
Human fetal astrocytes [1]; 11.11 µM
  loss of total cells: 3.1%
Human fetal astrocytes [1]; 22.22 µM
  loss of total cells: 12%
Human fetal astrocytes [2]; 1.39 µM
  synaptosome phagocytosis: 114%
Human fetal astrocytes [2]; 2.78 µM
  synaptosome phagocytosis: 130%
Human fetal astrocytes [2]; 5.56 µM
  synaptosome phagocytosis: 102%
Human fetal astrocytes [2]; 11.11 µM
  synaptosome phagocytosis: 128%
Human fetal astrocytes [2]; 22.22 µM
  synaptosome phagocytosis: 142%

## Cn1ccnc1 [1-Methylimidazole]
Human fetal astrocytes [1]; 1.39 µM
  loss of total cells: -9%
Human fetal astrocytes [1]; 2.78 µM
  loss of total cells: 29.4%
Human fetal astrocytes [1]; 5.56 µM
  loss of total cells: 1.4%
Human fetal astrocytes [1]; 11.11 µM
  loss of total cells: 9.5%
Human fetal astrocytes [1]; 22.22 µM
  loss of total cells: 9.3%
Human fetal astrocytes [2]; 1.39 µM
  synaptosome phagocytosis: 95.9%
Human fetal astrocytes [2]; 2.78 µM
  synaptosome phagocytosis: 109%
Human fetal astrocytes [2]; 5.56 µM
  synaptosome phagocytosis: 104%
Human fetal astrocytes [2]; 11.11 µM
  synaptosome phagocytosis: 101%
Human fetal astrocytes [2]; 22.22 µM
  synaptosome phagocytosis: 92.7%

## O=C(O)CCC(=O)N1CCC[C@H]1C(=O)O [N-Succinyl-L-proline]
Human fetal astrocytes [1]; 1.39 µM
  loss of total cells: -5.9%
Human fetal astrocytes [1]; 2.78 µM
  loss of total cells: -12.9%
Human fetal astrocytes [1]; 5.56 µM
  loss of total cells: -14.6%
Human fetal astrocytes [1]; 11.11 µM
  loss of total cells: -27.2%
Human fetal astrocytes [1]; 22.22 µM
  loss of total cells: -42.8%
Human fetal astrocytes [2]; 1.39 µM
  synaptosome phagocytosis: 91.9%
Human fetal astrocytes [2]; 2.78 µM
  synaptosome phagocytosis: 75.1%
Human fetal astrocytes [2]; 5.56 µM
  synaptosome phagocytosis: 86.3%
Human fetal astrocytes [2]; 11.11 µM
  synaptosome phagocytosis: 100%
Human fetal astrocytes [2]; 22.22 µM
  synaptosome phagocytosis: 94.6%

## CSc1nc(N)c2ncn([C@@H]3O[C@H](COP(=O)(O)OP(=O)(O)O)[C@@H](O)[C@H]3O)c2n1 [2-Methylthioadenosine diphosphate trisodium]
Human fetal astrocytes [1]; 1.39 µM
  loss of total cells: -6.2%
Human fetal astrocytes [1]; 2.78 µM
  loss of total cells: 8.6%
Human fetal astrocytes [1]; 5.56 µM
  loss of total cells: 23%
Human fetal astrocytes [1]; 11.11 µM
  loss of total cells: 0%
Human fetal astrocytes [1]; 22.22 µM
  loss of total cells: 15%
Human fetal astrocytes [2]; 1.39 µM
  synaptosome phagocytosis: 96.6%
Human fetal astrocytes [2]; 2.78 µM
  synaptosome phagocytosis: 110%
Human fetal astrocytes [2]; 5.56 µM
  synaptosome phagocytosis: 116%
Human fetal astrocytes [2]; 11.11 µM
  synaptosome phagocytosis: 137%
Human fetal astrocytes [2]; 22.22 µM
  synaptosome phagocytosis: 111%

## Cc1cc(C)c(/C=C2\C(=O)Nc3ccccc32)[nH]1
Human fetal astrocytes [1]; 1.39 µM
  loss of total cells: -18.3%
Human fetal astrocytes [1]; 2.78 µM
  loss of total cells: -30.2%
Human fetal astrocytes [1]; 5.56 µM
  loss of total cells: -14%
Human fetal astrocytes [1]; 11.11 µM
  loss of total cells: -0.4%
Human fetal astrocytes [1]; 22.22 µM
  loss of total cells: -43.6%
Human fetal astrocytes [2]; 1.39 µM
  synaptosome phagocytosis: 70.6%
Human fetal astrocytes [2]; 2.78 µM
  synaptosome phagocytosis: 78.6%
Human fetal astrocytes [2]; 5.56 µM
  synaptosome phagocytosis: 68.5%
Human fetal astrocytes [2]; 11.11 µM
  synaptosome phagocytosis: 79.7%
Human fetal astrocytes [2]; 22.22 µM
  synaptosome phagocytosis: 58.6%

## NCCCCN [Putrescine dihydrochloride]
Human fetal astrocytes [1]; 1.39 µM
  loss of total cells: -5.3%
Human fetal astrocytes [1]; 2.78 µM
  loss of total cells: -24.3%
Human fetal astrocytes [1]; 5.56 µM
  loss of total cells: -1.7%
Human fetal astrocytes [1]; 11.11 µM
  loss of total cells: 8%
Human fetal astrocytes [1]; 22.22 µM
  loss of total cells: -5.8%
Human fetal astrocytes [2]; 1.39 µM
  synaptosome phagocytosis: 121%
Human fetal astrocytes [2]; 2.78 µM
  synaptosome phagocytosis: 110%
Human fetal astrocytes [2]; 5.56 µM
  synaptosome phagocytosis: 111%
Human fetal astrocytes [2]; 11.11 µM
  synaptosome phagocytosis: 113%
Human fetal astrocytes [2]; 22.22 µM
  synaptosome phagocytosis: 114%

## CCCc1c(-c2ccc(O)cc2)nn(-c2ccc(O)cc2)c1-c1ccc(O)cc1 [1,3,5-tris(4-hydroxyphenyl)-4-propyl-1H-pyrazole]
Human fetal astrocytes [1]; 1.39 µM
  loss of total cells: 2.9%
Human fetal astrocytes [1]; 2.78 µM
  loss of total cells: -24.8%
Human fetal astrocytes [1]; 5.56 µM
  loss of total cells: -9.9%
Human fetal astrocytes [1]; 11.11 µM
  loss of total cells: -18.4%
Human fetal astrocytes [1]; 22.22 µM
  loss of total cells: -14.4%
Human fetal astrocytes [2]; 1.39 µM
  synaptosome phagocytosis: 103%
Human fetal astrocytes [2]; 2.78 µM
  synaptosome phagocytosis: 127%
Human fetal astrocytes [2]; 5.56 µM
  synaptosome phagocytosis: 94%
Human fetal astrocytes [2]; 11.11 µM
  synaptosome phagocytosis: 123%
Human fetal astrocytes [2]; 22.22 µM
  synaptosome phagocytosis: 107%

## COc1ccccc1N1CCN(CCCCNC(=O)c2ccc3ccccc3c2)CC1
Human fetal astrocytes [1]; 1.39 µM
  loss of total cells: -6.6%
Human fetal astrocytes [1]; 2.78 µM
  loss of total cells: -16.5%
Human fetal astrocytes [1]; 5.56 µM
  loss of total cells: -28.1%
Human fetal astrocytes [1]; 11.11 µM
  loss of total cells: -10.3%
Human fetal astrocytes [1]; 22.22 µM
  loss of total cells: 2.6%
Human fetal astrocytes [2]; 1.39 µM
  synaptosome phagocytosis: 125%
Human fetal astrocytes [2]; 2.78 µM
  synaptosome phagocytosis: 116%
Human fetal astrocytes [2]; 5.56 µM
  synaptosome phagocytosis: 77.1%
Human fetal astrocytes [2]; 11.11 µM
  synaptosome phagocytosis: 108%
Human fetal astrocytes [2]; 22.22 µM
  synaptosome phagocytosis: 112%
